pIC50: −log10 of the molar value. Like-named read-outs stand apart in the source and are kept apart here. Structures were worked out from names or drawings and are uncertain.
Tests used:
[1] = molecular target: GST-tagged full-length FAK enzyme (PTK2) (Homo sapiens, UniProt Q05397); experiment: Biochemical Omnia Assay (FAK); details: read-out: FAK Activity Biochemical OMNIA, [ATP] = 50uM, mean IC50
FAK = FAK (Homo sapiens, UniProt Q05397); experiment: Cell-based capture ELISA for inhibition of FAK autophosphorylation [pY397] in U87MG cells
[2] = read-out: FAK Activity Mechanistic (U87MG) HP, 50% (v/v) human plasma, mean IC50
[3] = read-out: FAK Activity Mechanistic (U87MG) MP, 50% (v/v) mouse plasma, mean IC50
[4] = read-out: FAK Activity Mechanistic (U87MG) NP, no plasma present, mean IC50

Protein sequences, listed by entry. Tags and fused reporters are not part of them.
UniProt Q05397, whole entry: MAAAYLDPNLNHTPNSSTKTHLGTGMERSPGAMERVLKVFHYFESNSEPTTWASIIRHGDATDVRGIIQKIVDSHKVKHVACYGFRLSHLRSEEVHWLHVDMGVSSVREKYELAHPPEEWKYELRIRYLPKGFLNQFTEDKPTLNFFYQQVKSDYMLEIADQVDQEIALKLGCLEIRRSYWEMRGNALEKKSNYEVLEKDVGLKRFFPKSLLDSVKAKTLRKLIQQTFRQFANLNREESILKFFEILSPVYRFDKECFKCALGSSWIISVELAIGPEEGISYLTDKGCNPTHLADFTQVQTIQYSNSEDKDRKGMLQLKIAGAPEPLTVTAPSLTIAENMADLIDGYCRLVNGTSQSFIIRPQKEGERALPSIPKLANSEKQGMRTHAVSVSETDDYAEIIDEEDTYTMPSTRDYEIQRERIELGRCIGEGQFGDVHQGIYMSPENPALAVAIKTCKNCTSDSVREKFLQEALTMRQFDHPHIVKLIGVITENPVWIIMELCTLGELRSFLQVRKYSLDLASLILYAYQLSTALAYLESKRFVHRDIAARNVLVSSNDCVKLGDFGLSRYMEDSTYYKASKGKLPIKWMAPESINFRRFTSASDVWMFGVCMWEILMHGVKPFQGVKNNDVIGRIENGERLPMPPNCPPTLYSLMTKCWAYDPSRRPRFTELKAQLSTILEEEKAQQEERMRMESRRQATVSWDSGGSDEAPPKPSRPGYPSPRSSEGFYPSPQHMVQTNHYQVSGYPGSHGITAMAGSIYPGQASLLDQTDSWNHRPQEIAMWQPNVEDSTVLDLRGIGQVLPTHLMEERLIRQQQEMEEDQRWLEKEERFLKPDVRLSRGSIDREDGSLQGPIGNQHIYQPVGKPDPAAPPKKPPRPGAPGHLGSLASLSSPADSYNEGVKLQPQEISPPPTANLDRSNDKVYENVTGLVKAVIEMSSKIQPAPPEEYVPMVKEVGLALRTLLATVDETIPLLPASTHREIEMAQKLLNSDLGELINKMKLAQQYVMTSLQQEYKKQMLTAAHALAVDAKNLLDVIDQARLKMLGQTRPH

SMILES | pIC50 [1] | pIC50 (FAK; [2]) | pIC50 (FAK; [3]) | pIC50 (FAK; [4])
CCOP1(=O)Cc2ccc(c(OC)c2)Nc2ncc(C(F)(F)F)c(n2)Nc2ccc(nc2C(=O)NC)-c2cn(nc2C)CCCO1 (stereo not drawn) | > 6.40 | > 6.40 | > 6.40 | > 6.40
CCOP1(=O)Cc2ccc(c(OC)c2)Nc2ncc(C(F)(F)F)c(n2)Nc2ccc(nc2C(=O)NC)-c2cnn(c2)CC2(COC2)CO1 (stereo not drawn) | > 6.40 | > 6.40 | > 6.40 | > 6.40
CCOP1(=O)Cc2ccc(c(OC)c2)Nc2ncc(C(F)(F)F)c(n2)Nc2ccc(nc2C(=O)NC)-c2cnn(c2)CCCO1 (stereo not drawn) | > 6.40 | > 6.40 | > 6.40 | > 6.40
CCOP1(=O)Cc2ccc(c(OC)c2Cl)Nc2ncc(C(F)(F)F)c(n2)Nc2ccc(nc2C(=O)NC)-c2cnn(c2)CCCO1 (stereo not drawn) | > 6.40 | 5.40 to 6.40 | > 6.40 | > 6.40
CCOP1(=O)Cc2ccc(cc2)Nc2ncc(C(F)(F)F)c(n2)Nc2ccc(nc2C(=O)NC)-c2cnn(c2)CC(C)CO1 (racemic) | > 6.40 | > 6.40 | > 6.40 | > 6.40
CCOP1(=O)Cc2ccc(c(OC)c2)Nc2ncc(C(F)(F)F)c(n2)Nc2ccc(nc2C(=O)NC)-c2cnn(c2)CC(C)(C)CO1 (single isomer, unassigned) | > 6.40 | > 6.40 | > 6.40 | > 6.40
CCOP1(=O)Cc2ccc(c(OC)c2Cl)Nc2ncc(C(F)(F)F)c(n2)Nc2ccc(nc2C(=O)NC)-c2cnn(c2)CC2(COC2)CO1 (single isomer, unassigned) [55A] | > 6.40 | 5.40 to 6.40 | 5.40 to 6.40 | > 6.40
CCCP1(=O)Cc2ccc(c(OC)c2)Nc2ncc(C(F)(F)F)c(n2)Nc2ccc(cc2C(=O)NC)-c2cnn(c2)CCCO1 (single isomer, unassigned) [66A] | > 6.40 | 5.40 to 6.40 | 5.40 to 6.40 | > 6.40
CNC(=O)c1nc2ccc1Nc1nc(ncc1C(F)(F)F)Nc1ccc(cc1OC)CP(C)(=O)OCC(C)(C)Cn1cc-2cn1 (single isomer, unassigned) [Example 62] | > 6.40 | > 6.40 | > 6.40 | > 6.40

Reference: US9133224B2, “Macrocyclic kinase inhibitors” (OSI Pharmaceuticals, LLC, priority 2010, dated 2015)
